The nature of this assay: qHTS Assay for Modulators of Lamin A Splicing. The following applies: HeLa LMNA splicing GFP/RFP minigene ratio, 48 h. Put shortly:
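S3 HeLa cells stably expressing lamin A-EGFP splicing minigene plus DsRed2, 600 cells/well, 48 h compound exposure at 37C. Laser-scanning cytometry; analysed as GFP (500-530 nm)/RFP (575-640 nm) total intensity ratio; 0.5% DMSO vehicle.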
A general note: qHTS replaces the single test concentration by a dilution series.

Where [1] appears, read: measured here: RFP viability control channel.
The mark [2] stands for this setting: measured here: GFP splicing reporter channel.

The other results are listed elsewhere or left out. These are further read-outs of the screen, such as a control signal, another cell line or another target. No call is given for them. Most of these compounds were active or inconclusive in the main read-out, so they are no random draw. Potencies come from curve fits of mixed quality, noted in brackets.

On to `Cc1nn(Cc2ccc(Cl)cc2Cl)c(C)c1NC(=O)C1C2CCC(O2)C1C(=O)O` (stereo not drawn), for which, under setting [1], the half-maximal activity concentration (AC50) was 14.1 µM [rising, partial curve]. Consider `O=C(/C=C/c1ccccc1)NCCc1ccc2c(c1)OCCO2`, for which the AC50 under setting [1] is 0.224 µM [rising, full curve, poor fit]. Regarding `CCCOc1ccc(C(=O)N2CCC(c3nc4ccccc4s3)CC2)cc1`, the half-maximal activity concentration (AC50) under setting [2] was 10 µM [falling, partial curve, poor fit]. `COc1ccc(C(=O)N2CCCC(CCC(=O)NCc3ccc(F)c(F)c3)C2)cc1F` (stereo not drawn): the concentration at half-maximal activity (AC50) is 7.94 µM [falling, partial curve, poor fit] under setting [2] and 8.91 µM [falling, full curve, poor fit] under setting [1]. In the case of `CCCCc1nc2ccccc2c(N)c1CCC` (tested in a mixture with another compound), the AC50 under setting [1] was 14.1 µM [rising, partial curve, poor fit].

For `CCOC(=O)C1(CCOc2ccccc2)CCN(Cc2ccc(CO)o2)CC1`, the AC50 is, setting by setting: under setting [2], 35.5 µM [falling, single point]; under setting [1], 12.6 µM [falling, single point]. Take `N#Cc1c(N2CCN(C(=O)c3ccco3)CC2)nc(-c2ccccc2)c2c1CCCC2`: the concentration at half-maximal activity (AC50) under setting [1] was 22.4 µM [rising, single point]. With `CC(=N\O)/C(CN(C)C)=N/O`, the half-maximal activity concentration (AC50) under setting [2] was 1.58 µM [rising, full curve, poor fit].

Regarding `COc1ccc(/C=N/Nc2cc(C)nc(-n3nc(C)cc3C)n2)c(OC)c1`, the AC50 was 35.5 µM [rising, single point] under setting [2] and 35.5 µM [rising, single point] under setting [1].

As to `Cc1cc(C)cc(NC(=O)N2CCN(Cc3ccc4c(c3)OCO4)CC2)c1`, under setting [1], the half-maximal activity concentration (AC50) is 11.2 µM [falling, partial curve, poor fit]. In the case of `Fc1ccc(CNC(=S)Nc2ccccc2Cl)cc1`, the concentration at half-maximal activity (AC50) was 0.398 µM [falling, single point] under setting [2] and 0.355 µM [falling, partial curve] under setting [1]. With `COc1ccc2[nH]cc(CCNc3ncncc3-c3ccccc3C)c2c1`, the concentration at half-maximal activity (AC50) under setting [2] is 17.8 µM [falling, partial curve, poor fit]. Turning to `O=C(CSc1nnc(-c2ccccn2)n1-c1ccccc1)Nc1ccc2c(c1)OCO2`, the AC50 under setting [2] is 31.6 µM [rising, single point].

As for `CCCCCn1ccc(=O)c2c(C(F)(F)F)nccc21`, the AC50 was 14.1 µM [rising, partial curve] under setting [2] and 11.2 µM [rising, partial curve] under setting [1]. As to `C1=C(c2cccc3ccccc23)N2CCN=C2S1`, the half-maximal activity concentration (AC50) under setting [2] is 12.6 µM [rising, single point] and the half-maximal activity concentration (AC50) under setting [1] is 25.1 µM [rising, single point]. For `Cc1c(C(=O)Nc2ccc(F)c(Cl)c2)sc2nc3n(c(=O)c12)CCC3`, the AC50 under setting [1] was 35.5 µM [rising, partial curve, poor fit]. In the case of `O=[N+]([O-])c1cc(C(F)(F)F)ccc1NCCCCNS(=O)(=O)c1ccc(Cl)cc1`, the concentration at half-maximal activity (AC50) under setting [1] is 17.8 µM [rising, partial curve].

`CC(Sc1nc2ccccc2s1)C(=O)Nc1ccc2c(c1)OCO2` (stereo not drawn): the half-maximal activity concentration (AC50) under setting [1] is 20 µM [rising, single point]. `COc1ccccc1N1CCN(c2ncnc3c2cnn3-c2ccc(C)cc2)CC1`: the AC50 is 11.2 µM [falling, partial curve] under setting [2] and 0.00891 µM [falling, full curve, poor fit] under setting [1].

Take `COc1ccc(C2=NOC(C(=O)NCc3cccs3)C2)cc1` (stereo not drawn): under setting [1], the half-maximal activity concentration (AC50) was 7.94 µM [rising, partial curve, poor fit]. Regarding `O=C(CSc1nc(-c2ccco2)cc(C(F)(F)F)n1)NCCCn1ccnc1`, the AC50 under setting [1] was 2.82 µM [rising, partial curve]. For the compound `COc1ccc(C)cc1N(C(=O)c1ccccc1)c1nc2ccccc2s1`, under setting [1], the concentration at half-maximal activity (AC50) was 35.5 µM [rising, partial curve, poor fit]. Regarding `Cn1nnnc1Sc1ncnc2scc(-c3ccccc3)c12`, the half-maximal activity concentration (AC50) by setting is: under setting [2], 10 µM [falling, partial curve]; under setting [1], 14.1 µM [rising, partial curve]. For the compound `CSc1ccc(C(=O)C2CCCN(S(=O)(=O)N(C)C)C2)cc1` (stereo not drawn), the AC50 under setting [2] was 0.0398 µM [falling, full curve, poor fit]. For the compound `Cc1c(C(=O)Nc2ccc(Oc3ccccc3)cc2)sc2nc3n(c(=O)c12)CCC3`, the half-maximal activity concentration (AC50) under setting [2] is 35.5 µM [rising, single point] and the AC50 under setting [1] was 35.5 µM [rising, single point].

Consider `COC(=O)[C@@H]1CC[C@H](C)[C@@H](c2ccc(C)cc2)N1C(=O)c1ccc(/C=N/O[C@@H](C)CN2CCCCc3nc(C)c(C)cc32)cc1`, for which the half-maximal activity concentration (AC50) under setting [2] was 6.31 µM [rising, partial curve]. `CCCN1CCC(NC(=O)CCc2nnc(Cc3cc(OC)ccc3OC)o2)CC1`: the AC50 under setting [1] is 0.00447 µM [falling, full curve, poor fit].

With `Nc1ccc(C(=O)Nc2nccs2)cc1`, the AC50 reads like this: under setting [2], 0.0631 µM [falling, full curve, poor fit]; under setting [1], 0.0316 µM [falling, full curve, poor fit]. Regarding `CC(C)Sc1nc2ccc(Br)cc2[nH]1`, the AC50 under setting [1] was 11.2 µM [falling, partial curve]. Regarding `O=C1c2ccccc2C(=O)N1CCc1csc(-c2ccc(F)cc2)n1`, under setting [1], the AC50 is 12.6 µM [rising, single point].

Turning to `CNS(=O)(=O)c1ccc(N=Cc2c(C)[nH]n(-c3ccc(C)cc3C)c2=O)cc1`, under setting [2], the concentration at half-maximal activity (AC50) is 0.0891 µM [falling, full curve, poor fit]. As for `S=C(Nc1ccc(Cl)cc1Cl)NC1CCN(Cc2ccccc2)CC1`, the AC50 under setting [1] is 35.5 µM [rising, single point].

For `CC(=O)Nc1ccccc1N(C)S(=O)(=O)c1ccc(C)cc1`, the AC50 runs as follows: under setting [2], 35.5 µM [rising, single point]; under setting [1], 15.8 µM [rising, single point]. On to `Cc1cc(/C=N/NC(=O)c2cccs2)c(C)n1-c1ccccc1`, for which the concentration at half-maximal activity (AC50) under setting [1] is 7.08 µM [rising, partial curve]. As for `O=C(COc1ccccc1)Nc1cccc(-c2nc3ccccc3[nH]2)c1`, the AC50 under setting [1] was 11.2 µM [rising, partial curve, poor fit]. Take `COC(=O)C(C(=O)OC)[C@@H]1c2ccccc2[C@H]2C(=C[C@@H](C)[C@H]3C(=O)N(c4ccccc4)C(=O)[C@H]32)N1C(=O)OC`: under setting [2], the half-maximal activity concentration (AC50) was 0.398 µM [falling, partial curve, poor fit]. For `C=CCN(CC(=O)O)S(=O)(=O)c1ccccc1C(F)(F)F`, the concentration at half-maximal activity (AC50) under setting [2] is 1.58 µM [falling, partial curve, poor fit]. For the compound `CC(C)(C)NC(=S)NC(=O)C12CCC3CC(CC(C3)C1)C2`, the AC50 under setting [2] was 5.62 µM [falling, single point]. For `CCOc1ccccc1C(=O)N1CCC(c2nc3ccccc3o2)CC1`, the half-maximal activity concentration (AC50) was 39.8 µM [falling, partial curve, poor fit] under setting [2] and 0.00708 µM [falling, partial curve, poor fit] under setting [1]. Consider `COc1cc(/C=C/C(=O)NCCn2c(C)cc3ccccc32)cc(OC)c1OC`, for which the concentration at half-maximal activity (AC50) reads like this: under setting [2], 17.8 µM [rising, single point]; under setting [1], 12.6 µM [rising, partial curve, poor fit]. For the compound `CSc1nc(SCCO)c2sc3nc(-c4ccco4)c4c(c3c2n1)CC(C)(C)OC4`, under setting [2], the AC50 was 35.5 µM [rising, single point]. Turning to `CCOC(=O)c1c(CN2CCOCC2)n(-c2ccccc2)c2cc(Br)c(OC)cc12`, the half-maximal activity concentration (AC50) under setting [2] was 12.6 µM [rising, single point] and the half-maximal activity concentration (AC50) under setting [1] was 12.6 µM [rising, single point]. Take `COC(=O)c1ccc(CSc2nc3sc(C(=O)O)c(C)c3c(=O)[nH]2)cc1`: the AC50 under setting [2] is 0.0631 µM [rising, full curve, poor fit]. For `COc1ccc(C)cc1N1C(=N)/C(=C2/Nc3ccccc3S2)C(c2ccccc2)C1=O` (stereo not drawn), the AC50 runs as follows: under setting [2], 20 µM [rising, partial curve, poor fit]; under setting [1], 7.08 µM [rising, single point]. For the compound `Cc1ccc(S/C=C\C(=O)c2ccccc2)cc1`, the concentration at half-maximal activity (AC50) under setting [2] is 20 µM [falling, single point] and the half-maximal activity concentration (AC50) under setting [1] is 35.5 µM [falling, single point]. Consider `COc1cccc(NC(=O)CSc2c3c(nc4ccccc24)CCCC3)c1`, for which, under setting [1], the half-maximal activity concentration (AC50) was 25.1 µM [falling, single point]. For `Nc1nc(NC(=O)c2cccs2)nn1-c1ccccc1`, the AC50 under setting [2] is 6.31 µM [falling, partial curve, poor fit] and the concentration at half-maximal activity (AC50) under setting [1] is 2.24 µM [falling, partial curve, poor fit]. Regarding `CSc1cccc(NS(=O)(=O)c2ccc3c(c2)oc(=O)n3C)c1`, the AC50 under setting [1] was 17.8 µM [rising, single point]. In the case of `Cc1ccc(-c2nnc3c4ccccc4c(C)nn23)cc1S(=O)(=O)N1CCN(CCO)CC1`, the AC50 under setting [1] is 35.5 µM [rising, single point]. Take `Cc1ccc(S(=O)(=O)O)cc1C`: the concentration at half-maximal activity (AC50) under setting [1] was 1.12 µM [falling, full curve, poor fit]. Same read-out and setting: for `O=C(CN1CCCc2ccccc21)N/N=C/c1ccccc1O` the value was 10 µM [rising, partial curve].

Consider `CCOC(=O)c1cccc(NC(=O)CN(c2ccc(C)cc2)S(=O)(=O)c2c(C)noc2C)c1`, for which, under setting [2], the AC50 was 31.6 µM [rising, single point]. For the compound `COc1ccc(CN2CSC(=S)N(Cc3ccc(OC)cc3)C2)cc1`, the AC50 under setting [1] was 3.98 µM [falling, partial curve].

In the case of `COc1ccc(-c2noc(CN(C)S(=O)(=O)c3ccc(C)cc3)n2)cc1`, the half-maximal activity concentration (AC50) under setting [1] is 20 µM [rising, single point].

As to `CO/N=C(\Cn1ncc(N2CCCC2)c(Cl)c1=O)c1ccc(Cl)cc1`, the half-maximal activity concentration (AC50) was 17.8 µM [rising, single point] under setting [2] and 35.5 µM [rising, single point] under setting [1].

What is called AC50 is the midpoint of the concentration-response curve, whichever way the signal moves.

(Values after PubChem BioAssay AID1487 (National Center for Advancing Translational Sciences (NCATS), 2009).)
